Measured values as given in PMC6044906.
These are yes or no findings as the source states them, for the method shown. Binding seen in cells or lysates may run through a third protein. These calls come from enrichment with a bait or labelling near it, and not all partners need be listed. A no says only that the protein was not detected with the bait.

Target: ZMYND10 (mouse (endogenous in testes and oviduct))
Assay: affinity purification with mass spectrometry; endogenous ZMYND10 precipitated from P30 mouse testes extracts with two polyclonal antibodies (Sigma, Proteintech), on-bead digestion, label-free quantification against IgG controls, CRAPome filter

B1: LRRC6 (protein, UniProt O88978 1-473)
chain: MGRITEDLIRRNAEHNDCVIFSLEELSLHQQEIERLEHIDKWCRDLKILYLQNNLIGKIENVSKLKKLEYLNLALNNIERIENLEGCEWLTKLDLTVNFIGELSSVKTLTHNIHLKELFLMGNPCADFDGYRQFVVVTLQQLKWLDGKEIERSERIQALQNYTSVEQQIREQEKAYCLRRAKEKEEAQRKLEEENESEDKKKSSTGFDGHWYTDIHTACPSATENQDYPQVPETQEEQHNTKESDDIEDDLAFWNKPSLFTPESRLETLRHMEKQRKAQDKLSEKKKKAKPPRTLITEDGKVLNVNEAKLDFSLKDDEKHNQIILDLAVYRYMDTSLIEVDVQPTYVRVMVKGKPFQLALSTEVQPDRSSAKRSQTTGHLLICMPKVGEMITGGQRTPTSVKTTSTSSREQTNPRKKQIERLEVDPSKHSCPDVSTIVQEKRHRPKRMESQPRDEPSEEDPDFEDNPEVPPLI
binding: no binding
